Many values rest on one well or one pass, so single values are uncertain.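 All cells are established human bladder cancer lines, one of them grown from a patient-derived xenograft. Viability was read by a luminescent ATP assay as percent inhibition versus vehicle over a seven-point dilution series; the paper calls scores above 59 very active, 30–59 active, 21–29 semi-active, 9–20 low active and below 9 inactive.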
Columns and labels:
Assay in all cases: drug sensitivity score DSS3 (score 0-100); higher = more sensitive; extreme values may be limits of the assay
Conditions in all cases: culture: 3D, ultra-low attachment; treatment time: 5 days
[1] = test system: 5637
[2] = test system: BC8149
[3] = test system: J82
[4] = test system: SCaBER
[5] = test system: SW780
[6] = test system: T-24
[7] = test system: TCCSUP
[8] = test system: UM-UC-12
[9] = test system: UM-UC-14
[10] = test system: UM-UC-15
[11] = test system: UM-UC-17
[12] = test system: UM-UC-18
[13] = test system: UM-UC-1
[14] = test system: UM-UC-3
[15] = test system: UM-UC-5
[16] = test system: UM-UC-6
[17] = test system: UM-UC-9

SMILES	drug sensitivity score DSS3 [1]	drug sensitivity score DSS3 [2]	drug sensitivity score DSS3 [3]	drug sensitivity score DSS3 [4]	drug sensitivity score DSS3 [5]	drug sensitivity score DSS3 [6]	drug sensitivity score DSS3 [7]	drug sensitivity score DSS3 [8]	drug sensitivity score DSS3 [9]	drug sensitivity score DSS3 [10]	drug sensitivity score DSS3 [11]	drug sensitivity score DSS3 [12]	drug sensitivity score DSS3 [13]	drug sensitivity score DSS3 [14]	drug sensitivity score DSS3 [15]	drug sensitivity score DSS3 [16]	drug sensitivity score DSS3 [17]
CNC(=O)c1ccc(-c2cnc3ncc(Cc4ccc5ncccc5c4)n3n2)cc1F (max dose 10000 nM)	12.6	0	0	2.1	8.42	0	10.3	0	4.49	8.7	10.8	3.71	5.57	5.06	0	11.9	2.57
O=C(Nc1ccccc1-c1cn2c(CN3CCNCC3)csc2n1)c1cnc2ccccc2n1 [SRT1720] (max dose 10000 nM)	2.66	19	0	23	0.0894	1.07	30.5	1.83	1.83	0	0	7.09	9.1	0	0.456	1.44	0.156
COc1cccc(Nc2c(C(N)=O)cnc3c(C)cc(S(=O)(=O)c4cccc(C(=O)N(C)C)c4)cc23)c1 (max dose 10000 nM)	0	0	0	0	0	0	1.31	0	0	0	0	0.46	0	0	0	0.77	0
O=C(CCCCCCC(=O)Nc1ccccc1)NO [Vorinostat (SAHA, MK0683)] (max dose 10000 nM)	6.1	3.4	1.21	0.514	0	0.307	16.9	4.32	0.95	5.32	1.92	2.29	0.933	0	1.08	2.79	1.41
Cn1cc(C2=C(c3ccc(Cl)cc3Cl)C(=O)NC2=O)c2ccccc21 (max dose 10000 nM)	10.5	20.1	0	0	0	0	9.8	2.63	0.789	0	5.19	0	6.53	0	3.79	0	0
NC(=O)c1cccc2cn(-c3ccc([C@@H]4CCCNC4)cc3)nc12 [Niraparib] (max dose 15400 nM)	3.48	7.71	0	1.49	4.78	0.0499	5.96	2.22	1.14	0	0.613	0	3.42	1.56	0	1.93	0
COc1cc(OCc2cccc(-c3ccccc3)c2C)cc(OC)c1CN1CCCC[C@H]1C(=O)O [PD-1/PD-L1 inhibitor 1] (max dose 10000 nM)	0	0	0	0	0	0	0	0	0	1.12	0	0	0	0	0	0	0
CN(C)NC(=O)CCC(=O)O [Daminozide] (max dose 10000 nM)	0	0	0	0	0	0.334	0	0	0.888	0	0	0	0.0873	0	0	0.177	0
O=c1[nH]c2ccc(Cl)cc2c(N[C@@H]2CN3CCC2CC3)c1-c1nc2ccccc2[nH]1 [CHIR-124] (max dose 10000 nM)	19	10	1.62	0.104	0	1.67	26.4	2.73	3.78	40.5	2.58	7.29	15.2	0.108	0.144	16	1.65
C[C@]12CC[C@@H]3c4ccc(O)cc4C[C@@H](CCCCCCCCC[S+]([O-])CCCC(F)(F)C(F)(F)F)[C@H]3[C@@H]1CC[C@@H]2O (some centres undefined) [fulvestrant] (max dose 10000 nM)	9.25	4.93	7.77	18	7.02	17.8	22.6	8.9	13.7	0	9.1	0	23.8	2.82	0	4.54	0
O=P1(N(CCCl)CCCl)NCCCO1 (centres undefined) [Cyclophosphamide, Cyclophosphamide Monohydrate] (max dose 10000 nM)	0	0	0	0	0	0	0	0	0	0.595	0	0	0	0	0	0	0
c1ccc2c(CCNc3ccc(Nc4ccncc4)cc3)c[nH]c2c1 (max dose 10000 nM)	0	7.69	0	0	0	0.161	3.76	0	0	1.41	0	0	0.434	0	0	0	0

Source: the supplement of paper PMC7646827
